From PMC10616125

Amino acid sequences for entries named in this document (tags omitted).
UniProt P68104: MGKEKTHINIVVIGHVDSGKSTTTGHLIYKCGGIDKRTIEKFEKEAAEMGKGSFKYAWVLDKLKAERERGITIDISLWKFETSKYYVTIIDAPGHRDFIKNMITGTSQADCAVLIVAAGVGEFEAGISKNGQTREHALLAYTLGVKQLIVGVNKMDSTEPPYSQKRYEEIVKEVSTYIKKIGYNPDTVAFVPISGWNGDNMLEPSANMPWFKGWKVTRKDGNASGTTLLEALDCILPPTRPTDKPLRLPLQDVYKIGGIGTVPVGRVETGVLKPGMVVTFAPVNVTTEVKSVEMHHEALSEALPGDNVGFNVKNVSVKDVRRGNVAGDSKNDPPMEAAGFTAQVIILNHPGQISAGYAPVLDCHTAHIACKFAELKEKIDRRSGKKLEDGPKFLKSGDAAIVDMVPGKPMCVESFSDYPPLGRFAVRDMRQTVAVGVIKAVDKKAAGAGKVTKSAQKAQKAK
UniProt P07355: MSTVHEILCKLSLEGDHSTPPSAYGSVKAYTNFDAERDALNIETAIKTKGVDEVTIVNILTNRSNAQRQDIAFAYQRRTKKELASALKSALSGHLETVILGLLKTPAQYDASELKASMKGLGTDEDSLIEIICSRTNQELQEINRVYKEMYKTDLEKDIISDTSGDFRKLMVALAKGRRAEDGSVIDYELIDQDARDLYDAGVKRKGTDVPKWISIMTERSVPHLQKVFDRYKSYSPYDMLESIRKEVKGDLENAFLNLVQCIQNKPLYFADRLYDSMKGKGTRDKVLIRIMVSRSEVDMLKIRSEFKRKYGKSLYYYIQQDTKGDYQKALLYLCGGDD

Biological target: T1, membrane palmitoylated protein 2 (MPP2), wild type (human) (UniProt Q14168)
T1 sequence: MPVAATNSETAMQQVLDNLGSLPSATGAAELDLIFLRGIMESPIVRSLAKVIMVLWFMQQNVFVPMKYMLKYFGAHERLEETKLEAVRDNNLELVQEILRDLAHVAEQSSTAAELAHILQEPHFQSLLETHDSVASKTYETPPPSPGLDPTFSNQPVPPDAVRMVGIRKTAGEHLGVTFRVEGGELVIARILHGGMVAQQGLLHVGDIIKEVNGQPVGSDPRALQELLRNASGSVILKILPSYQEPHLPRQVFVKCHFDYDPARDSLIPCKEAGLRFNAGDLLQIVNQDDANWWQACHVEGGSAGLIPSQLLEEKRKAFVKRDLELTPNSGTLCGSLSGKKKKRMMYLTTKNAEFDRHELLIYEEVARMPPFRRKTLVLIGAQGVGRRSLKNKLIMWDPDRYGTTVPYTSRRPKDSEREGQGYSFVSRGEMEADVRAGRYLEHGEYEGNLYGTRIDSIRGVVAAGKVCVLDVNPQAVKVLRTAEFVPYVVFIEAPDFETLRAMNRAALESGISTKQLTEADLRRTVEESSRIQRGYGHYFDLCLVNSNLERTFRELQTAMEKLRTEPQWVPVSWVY
Assay: affinity purification with mass spectrometry; MPP2 pulled down by IP with anti-MPP2 antibody and protein G agarose at 4 °C from ARPE19 cells transduced with wild-type or MPP2-N315 mutant, treated with MG132 (10 μm) for 8 h; LC-MS/MS

Substance: EEF1A1 (from UniProt P68104 1-462)
- binding: binds

Substance: annexin A2 (ANXA2) (from UniProt P07355 1-339)
- binding: binds

Results are given in words; binding and its absence hold for the method and conditions named. Binding seen in cells or lysates may run through a third protein. These calls come from enrichment with a bait or labelling near it, and not all partners need be listed.
